Measured values: PMC4488328
These are yes or no findings as the source states them, for the method shown. Binding seen in cells or lysates may run through a third protein. Some binding calls cover weakened binding; strength is not graded here. Tags and fused reporters may be left off the sequences shown.

T1: Salvador (Sav), Myc-tagged (Drosophila) (UniProt Q9VCR6)
T1 sequence: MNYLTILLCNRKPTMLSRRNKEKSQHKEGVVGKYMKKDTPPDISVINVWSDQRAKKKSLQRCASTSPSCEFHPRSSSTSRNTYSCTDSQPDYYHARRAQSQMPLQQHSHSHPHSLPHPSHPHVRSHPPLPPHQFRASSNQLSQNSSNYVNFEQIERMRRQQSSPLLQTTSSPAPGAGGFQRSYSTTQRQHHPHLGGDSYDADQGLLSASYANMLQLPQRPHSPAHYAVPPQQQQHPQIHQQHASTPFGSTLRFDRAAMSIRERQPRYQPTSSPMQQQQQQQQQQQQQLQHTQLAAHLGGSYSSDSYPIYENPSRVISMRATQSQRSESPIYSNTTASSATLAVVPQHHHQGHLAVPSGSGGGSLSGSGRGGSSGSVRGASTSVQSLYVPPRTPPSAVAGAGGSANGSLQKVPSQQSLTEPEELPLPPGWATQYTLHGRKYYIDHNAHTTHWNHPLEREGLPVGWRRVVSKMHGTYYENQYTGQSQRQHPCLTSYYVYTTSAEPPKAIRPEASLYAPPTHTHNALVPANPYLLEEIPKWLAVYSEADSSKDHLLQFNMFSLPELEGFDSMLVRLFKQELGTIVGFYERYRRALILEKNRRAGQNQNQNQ


Target: T1, Salvador (Sav), Myc-tagged (Drosophila)
Experiment: co-IP; within the Sav ubiquitylation assay: S2 cells transfected with Myc-Sav (or Sav∆N, Sav∆C), HA-ubiquitin and Herc4 and/or Hpo constructs; proteasome inhibitors 4 h unless stated otherwise (5 mM NEM in Fig 8A); anti-Myc immunoprecipitation with Protein A Sepharose; western blot

Row | Binder | binding
1 | Hippo (Hpo) (enzyme, UniProt Q8T0S6 1-669) MSEPEVTSVVDMKSPNISSSCSFFKLKKLSEESLLQPPEKVFDIMYKLGEGSYGSVYKAVHKESSSIVAIKLVPVESDLHEIIKEISIMQQCDSPYVVRYYGSYFKQYDLWICMEYCGAGSVSDIMRLRKKTLTEDEIATILSDTLQGLVYLHLRRKIHRDIKAANILLNTEGYAKLADFGVAGQLTDTMAKRNTVIGTPFWMAPEVIEEIGYDCVADIWSLGITALEMAEGKPPYGEIHPMRAIFMIPQKPPPSFREPDRWSTEFIDFVSKCLVKEPDDRATATELLEHEFIRNAKHRSILKPMLEETCAIREQQRANRSFGGVLAASQAKSLATQENGMQQHITDNAFMEDPGTLVPEKFGEYQQSSASDATMIAHAEQGVDEGTLGPGGLRNLSKAAAPAAASSAASPLDMPAVDSGTMVELESNLGTMVINSDSDDSTTAKNNDDQKPRNRYRPQFLEHFDRKNAGDGRGDEKPIATEYSPAAAEQQQQQQQQQQQQQQDEQHLASGANDLNNWEHNMEMQFQQISAINQYGLQQHQQQQQVLMAYPLMNEQLIALNNQPNLLLSNAAPMGQQGIPAAAPAQPPPAYQNQHMHTQSHAYVEGEFEFLKFLTFDDLNQRLCNIDHEMELEIEQLNKKYNAKRQPIVDAMNAKRKRQQNINNNLIKI | binds
2 | HpoT195A (kinase-dead Hpo, T-loop mutant) (enzyme, UniProt Q8T0S6 1-669) MSEPEVTSVVDMKSPNISSSCSFFKLKKLSEESLLQPPEKVFDIMYKLGEGSYGSVYKAVHKESSSIVAIKLVPVESDLHEIIKEISIMQQCDSPYVVRYYGSYFKQYDLWICMEYCGAGSVSDIMRLRKKTLTEDEIATILSDTLQGLVYLHLRRKIHRDIKAANILLNTEGYAKLADFGVAGQLTDTMAKRNAVIGTPFWMAPEVIEEIGYDCVADIWSLGITALEMAEGKPPYGEIHPMRAIFMIPQKPPPSFREPDRWSTEFIDFVSKCLVKEPDDRATATELLEHEFIRNAKHRSILKPMLEETCAIREQQRANRSFGGVLAASQAKSLATQENGMQQHITDNAFMEDPGTLVPEKFGEYQQSSASDATMIAHAEQGVDEGTLGPGGLRNLSKAAAPAAASSAASPLDMPAVDSGTMVELESNLGTMVINSDSDDSTTAKNNDDQKPRNRYRPQFLEHFDRKNAGDGRGDEKPIATEYSPAAAEQQQQQQQQQQQQQQDEQHLASGANDLNNWEHNMEMQFQQISAINQYGLQQHQQQQQVLMAYPLMNEQLIALNNQPNLLLSNAAPMGQQGIPAAAPAQPPPAYQNQHMHTQSHAYVEGEFEFLKFLTFDDLNQRLCNIDHEMELEIEQLNKKYNAKRQPIVDAMNAKRKRQQNINNNLIKI | binds
